According to patent US20230272088A1 (SYNTHEKINE, published 2023):
Results are given in words; binding and its absence hold for the method and conditions named. Some entries that bind do so weakly or less than the wild type.

Assays:
[1] = target: T1, extracellular domain of hIFNGR2 (human, UniProt P38484 28-247, conjugated to Alexa647 (site not stated)); assay: flow cytometry, yeast-displayed VHH, 100 nM Alexa647-conjugated antigen
T1 construct: also called hIFNGR2-ECD; human IFNGR2 ECD
T1 sequence: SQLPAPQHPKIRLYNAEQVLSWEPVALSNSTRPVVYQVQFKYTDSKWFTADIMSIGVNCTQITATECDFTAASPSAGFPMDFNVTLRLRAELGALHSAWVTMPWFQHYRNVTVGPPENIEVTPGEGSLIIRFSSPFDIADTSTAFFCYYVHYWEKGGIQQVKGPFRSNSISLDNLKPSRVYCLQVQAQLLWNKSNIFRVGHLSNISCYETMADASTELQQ
Description: Binding of individual VHH to human and murine antigen was tested by flow cytometry. Briefly, 2E5 yeast cells expressing a single sdAb clone were added to each well of a 96 well plate. The first plate was incubated with 100 nM of human antigen conjugated to Alexa647 whereas the second plate was incubated with 100 nM of murine antigen conjugated to Alexa647. Yeast cells were washed 3 times with PBS containing 1% bovine serum albumin. Yeast cells were analyzed using flow cytometry and clones showing a mean fluorescence intensity of greater than 1000 were considered as binding molecules. Specificity of sdAbs was confirmed by incubating yeast cells with a irrelevant protein conjugated to Alexa647. Positive clones were sequenced, and sequences analyzed to identify unique clonotypes.

[2] = target: T2, extracellular domain of mIFNGR2 (mouse); assay: flow cytometry
T2 sequence (chain, conjugated to Alexa647 (site not stated)): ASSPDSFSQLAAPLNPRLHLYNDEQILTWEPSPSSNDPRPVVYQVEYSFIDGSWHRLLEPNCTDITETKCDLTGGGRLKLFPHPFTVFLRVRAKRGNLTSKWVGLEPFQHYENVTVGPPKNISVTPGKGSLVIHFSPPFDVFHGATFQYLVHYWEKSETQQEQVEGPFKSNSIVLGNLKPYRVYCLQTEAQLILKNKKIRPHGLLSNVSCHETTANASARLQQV

[3] = target: T2, extracellular domain of mIFNGR2 (mouse); assay: flow cytometry, yeast-displayed VHH, 100 nM Alexa647-conjugated antigen
[4] = target: T1, extracellular domain of hIFNGR2; assay: flow cytometry

Measured: binding

B1: DR954 (VHH)
VHH: QVQLVESGGGLVQAGGSLRLSCAAARRTLHNFAMAWFRQAPGKEREFVAAISKGGGSADYADSVKGRFTISRDNAKNTVYLQMNSLKPEDTAVYYCAANDLASYSDSSYTSTSRYDYWGQGTQVTVSS
binds: [1] | [2] | [3] | [4]

B2: DR955 (VHH)
VHH: QVQLVESGGGLVQTGGSLRLSCAASGRTFSSYAMAWFRQAPGKEREFVAAISILGGSADYEDSVQGRFTISRDNAKNTMYLQMNSLKPEDTAVYYCAARRPAPSDSYWSSTSYAYWGQGTLVTVSS
binds: [1] | [2] | [3] | [4]

B3: DR957 (VHH)
VHH: QVQLVESGGGLVQAGGSLRLSCAPSGRTFSSYAMAWFRQPPGKEREFVAAITVSGASTYYADSVKGRFTISRDNAKNSMYLQMNSLKPEDTAVYYCAAGGPGTIFPDYDYWGQGTQVTVSS
binds: [1] | [2] | [3] | [4]

B4: DR942 (VHH)
VHH: QVQLVESGGGLVQAGGSLRLSCVASGRTFTGYAMGWFRQAPGKEREFVAVITWSGATTYYSASVKGRFTLSRDNAKNTVYLQMNSLKSEDTAVYYCAIRIRDGVSPENPNEYGYWGQGTQVTVSS
binds: [1] | [2] | [3] | [4]

B5: DR921 (VHH)
VHH: QVQLVESGGGLVQAGDSLRLSCAASGRTFTFSTHNMGWFRQAPGKEREFVGGIMWTSRASYADSVKGRFTVSRDNAKNTVYLQMNSLKPEDTAVYYCAAAWYGNSGASYDYWGQGTQVTVSS
notes: also called anti-IFNGR1 sdAb VHH DR921
binds: [1] | [2] | [3] | [4]

B6: DR945 (VHH)
VHH: LVESGGGLVQLVQAGGSLRLSCAASGRTFSGYNMGWFRQAPGKEREFVAAIAWAGSRTYYTDSVKGRFTISRDNAKNTMYLQMNTLRPEDTAVYYCAAHDETYYRLDRVDLYTHWGQGTQVTVSS
binds: [1] | [2] | [3] | [4]

B7: DR949 (VHH)
VHH: QVQLVESGGGLVQAGGSLRLSCAASESILRFNVMSWLRQAPGKQRELVAVITSGGSTNYADSVKGRFTISRDNAKNTVYLQMNSLKPEDTAVYYCAADESGQYYWGQGTQVTVSS
notes: also called anti-IFNGR2 sdAb VHH DR949
binds: [2] | [3]

B8: DR950 (VHH)
VHH: QVQLVESGGGLVQAGGSLRLSCAASGLTTSSAALAWFRQAPGKERELDPTITSGGGSTYYADSVKGRFTISKDNAKNTLYLQMSSLKPEDTAVYYCAARFYSTTYYYREHEYSDWGQGTQVTVSS
notes: also called anti-IFNGR2 sdAb VHH DR950
binds: [2] | [3]

B9: DR951 (VHH)
VHH: QVQLVESGGGLVQAGGSLRLSCAASGRTFGTSFGSLSMGWFRQAPGKEREFVAAISRNIGRTYYADSVKDRFTISRDNAKNTASLQMNSLEPEDTAVYNCAATNSYDDLRRSYAYDYWGQGTQVTVSS
notes: also called anti-IFNGR2 sdAb VHH DR951
binds: [2] | [3]
